PubChem BioAssay AID686938 | Drosophila RNAi Screening Center, 2013

- Purpose: 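Fly genes required for calcium entry once internal stores are emptied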 (primary screen)
- Cell system: Drosophila S2R+ cells
- Knock-down reagent: long dsRNA against Drosophila genes, about 0.25 µg dsRNA per well, roughly 10,000 cells
- Time to read-out: 5 days of knock-down before the calcium assay
- Treatment: thapsigargin (SERCA pump blocker) to empty calcium stores; entry signal taken 4 min after adding it
- Read-out: 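Per-well fluo-4 fluorescence in two replicates, unnormalised, measured in resting cells and 4 min after store depletion by the SERCA blocker thapsigargin; ratio of the two present in few wells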
- Scale: calcium entry signal: higher = stronger calcium signal after store depletion; entry to resting ratio: higher = more calcium entry relative to resting level; resting calcium signal: higher = higher resting calcium signal
- Units: calcium entry signal in fluorescence units; resting calcium signal in fluorescence units
- Hit rule: 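Called when the plate z-score of the entry-to-rest ratio, mean of duplicates, falls below −3; wells with low overall dye signal (Fmax z below −2) or more than five off-targets excluded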
- Calls: active = strongly reduced calcium entry; inactive = no strong reduction
The deposit covers about 23,000 reagents; this is an unselected part of those with a known target gene and a result. In the full data, 75 (0.33%) got an active call. 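Raw plate signals without normalisation; calls rest on plate z-scores that were not deposited; ratio present for only 364 wells.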 A number with no mark means an inactive call. Reagents against one gene are numbered here. Names joined by + are all predicted targets of the reagent. Not stated in the record: the dose of the treatment.

target gene	dsRNA no.	calcium entry signal, replicate 1	calcium entry signal, replicate 2	entry to resting ratio	resting calcium signal, replicate 1	resting calcium signal, replicate 2
CG42814	1	4.04e7	6.22e7		2.09e7	2.48e7
Ak2	1	2.42e7	3.12e7		1.46e7	1.64e7
ssp5	1	2.91e7	3.82e7		1.31e7	1.70e7
ENGase	1	3.98e7	2.86e7		1.91e7	1.51e7
ENGase	2	2.39e7	2.30e7		1.34e7	1.13e7
Dnaaf4	1	3.25e7	5.30e7		1.60e7	2.14e7
Mst85C	1	4.59e7	4.46e7		1.91e7	2.10e7
CG14570	1	2.98e7	5.19e7		1.45e7	2.13e7
boi	1	4.15e7	4.05e7	2.1	2.01e7	1.78e7
boi	2	4.83e7	4.58e7	2	2.42e7	1.94e7
CG12009	1	3.74e7	2.54e7		2.53e7	9.91e6
CG1416	1	4.56e7			2.03e7	
l(3)psg2	1	3.74e7	2.33e7		2.70e7	1.03e7
sfl	1	2.34e7	2.84e7		1.15e7	1.33e7
sfl	2	2.90e7	5.43e7		1.46e7	2.31e7
Gbs-70E	1	5.15e7	6.34e7		2.25e7	2.67e7
CG33325	1	3.33e7	4.11e7		1.57e7	2.03e7
CG14823	1	4.61e7	2.78e7		3.12e7	1.30e7
CG11200	1	4.12e7	3.01e7		1.88e7	1.62e7
mRpS23	1	4.25e7	4.70e7		1.81e7	1.83e7
CG10887	1	2.07e7	2.49e7		3.15e7	1.35e7
CG42449	1	3.54e7	7.62e7		1.85e7	3.82e7
Ac13E	1	3.31e7	2.99e7		1.80e7	1.28e7
Adck1	1	4.40e7			2.13e7	
AhcyL2	1	2.86e7	4.19e7		1.50e7	5.61e7
su(w[a])	1	3.81e7	4.01e7		1.88e7	1.94e7
knon	1	5.04e7	5.82e7		2.20e7	2.68e7
spz3	1	2.60e7	3.16e7		1.25e7	1.41e7
spz3	2	2.70e7	2.94e7		1.24e7	1.23e7
Mal-A7	1	3.42e7	4.06e7		1.67e7	1.67e7
CG13295	1	2.57e7	3.04e7		1.17e7	1.18e7
zen	1	4.80e7	3.37e7		2.31e7	1.73e7
CG42686 (retired record)	1	2.68e7	2.83e7		1.65e7	1.67e7
CG42686 (retired record)	2	4.29e7	4.53e7		1.94e7	1.92e7
CG42686 (retired record)	3	6.18e7	3.75e7		3.12e7	1.53e7
Dys + snoRNA:Me18S-A1374	1	3.44e7	4.94e7		5.17e7	2.57e7
CG8034	1	2.72e7	3.14e7		1.47e7	1.51e7
CG33919	1	3.24e7	6.43e7		1.63e7	2.81e7
Nprl3	1	2.74e7	3.63e7		1.32e7	2.53e7
Rad1 + Sws1	1	3.90e7	5.54e7		1.83e7	2.21e7
dmrt11E	1	3.00e7	2.71e7		1.61e7	1.42e7
CG13921	1	3.97e7	3.63e7		1.77e7	1.84e7
CG3124	1	2.46e7	2.04e7		1.29e7	9.71e6
CG3124	2	3.16e7	3.37e7		1.68e7	1.59e7
CG9590	1	3.25e7	2.27e7		1.51e7	9.95e6
CG4927	1	5.14e7	5.15e7		2.23e7	2.50e7
RpL27	1	1.17e7	1.06e7		9.03e6	6.87e6
Psa	1	3.40e7	3.16e7		1.55e7	1.62e7
MTPAP	1	4.31e7	3.71e7	2.2	1.99e7	1.63e7
Or88a	1	3.53e7	4.63e7		1.75e7	5.28e7
CG31974	1	3.88e7	3.72e7		1.99e7	1.76e7
CG14591	1	4.67e7	5.17e7		2.33e7	2.44e7
CG30413	1	1.90e7	3.38e7		1.07e7	1.44e7
CG1354	1	3.57e7	4.71e7		1.82e7	2.01e7
Toll-7	1	5.71e7	2.67e7		2.54e7	1.33e7
Nup75	1	3.78e7	3.06e7		1.84e7	1.63e7
pico	1	5.26e7	3.94e7		2.29e7	1.48e7
Mgat1	1	2.16e7	3.07e7		1.08e7	1.40e7
